Measured values: patent US20080003199A1
These are yes or no findings as the source states them, for the method shown. In cells and extracts the contact can be indirect. Some binding calls cover weakened binding; strength is not graded here. Tags and fused reporters may be left off the sequences shown.

What was measured:
[1] = target: T1, mouse ST2-Fc (R&D) (mouse) (UniProt P14719); assay: pull-down of recombinant IL-33 with mouse ST2-Fc protein (FIG. 11D)
T1 sequence (looked up): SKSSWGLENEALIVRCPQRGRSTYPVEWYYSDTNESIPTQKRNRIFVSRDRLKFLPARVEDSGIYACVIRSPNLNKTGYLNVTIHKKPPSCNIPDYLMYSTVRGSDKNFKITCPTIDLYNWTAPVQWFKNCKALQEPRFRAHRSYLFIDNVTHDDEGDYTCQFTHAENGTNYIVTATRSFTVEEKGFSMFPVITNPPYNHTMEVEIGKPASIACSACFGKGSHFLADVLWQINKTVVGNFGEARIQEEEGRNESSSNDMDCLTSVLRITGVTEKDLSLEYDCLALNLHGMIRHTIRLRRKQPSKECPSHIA

[2] = target: T1, mouse ST2-Fc (R&D) (mouse); assay: pull-down of His-tagged IL-33 with mouse ST2-Fc, Ni-NTA beads, anti-HisG Western

binding [1]: binds
binding [2]: binds
B1: recombinant mature rat IL-33 with N-terminal His-tag (ligand, UniProt Q66H70 109-264, looked up, not shown: small tags and cut ends)
chain: SIQGTSLLTESCALSTYNDQSVSFVLENGCYVINVEDCGKNQEKDKVLLRYYESSFPAQSGDGVDGKKLMVNMSPIKDTDIWLNANDKDYSVELQKGDVSPPDQAFFVLHKKSSDFVSFECKNLPGTYIGVKDNQLALVEENDESCNNIMFKLSKM
